The list does not hold the whole screen: it gathers tests that were run many times, whatever their T/C, doses with no T/C, and many T/C values between a quarter and a half above the control. Further doses and runs are listed elsewhere. T/C gives the treated animals as a percentage of the vehicle group. Some entries give survivors of the animals treated and no T/C: the source files T/C as zero there, which appears to mark a toxic dose or a test without result, not a measured value. Some survivor counts are full or nearly so, which does not show that the dose was tolerated: the source hardly ever lists a survival T/C far under the control, and the zero likely stands for such cases as well. Survivors were counted at the toxicity check, usually on the fifth day, unless a day is given; later deaths do not show. Schedules are NCI's codes, read here as Q, the interval in days (D) or hours (H), X, the number of doses. Some schedules carry Z or #; the key to these is not given. Some structures stand for samples that the source files as different forms (salt, stereo form or complex); doses refer to the form tested. Where survival is the endpoint, the PubChem record calls one and a half times the control and up active, and a quarter to a half above the control has no call in these data; cut-offs in other NCI protocols can differ. Some entries were tested several times; the results are listed from low to high.
Tested on: L1210 leukemia ip in BDF1 mice, survival T/C
Experiment: NCI In Vivo Anticancer Drug Screen. Data for tumor model L1210 Leukemia (intraperitoneal) in B6D2F1 (BDF1) mice
Conditions: T/C endpoint: mean survival time, higher T/C = longer survival
[1] = dose: 50.0 mg/kg/injection, schedule: Q01DX009 (ip), vehicle: Klucel (hydroxypropylcellulose) (HPC)
[2] = dose: 100.0 mg/kg/injection, schedule: Q01DX009 (ip), vehicle: Klucel (hydroxypropylcellulose) (HPC)
[3] = dose: 200.0 mg/kg/injection, schedule: Q01DX009 (ip), vehicle: Klucel (hydroxypropylcellulose) (HPC)
[4] = dose: 400.0 mg/kg/injection, schedule: Q01DX009 (ip), vehicle: Klucel (hydroxypropylcellulose) (HPC)
[5] = dose: 400.0 mg/kg/injection, schedule: Q04DX003 (ip), vehicle: Klucel (hydroxypropylcellulose) (HPC)
[6] = dose: 400.0 mg/kg/injection, schedule: Q01DX001 (ip), vehicle: saline with Tween-80
[7] = dose: 200.0 mg/kg/injection, schedule: Q01DX001 (ip), vehicle: carboxymethylcellulose (CMC)
[8] = dose: 400.0 mg/kg/injection, schedule: Q01DX001 (ip), vehicle: carboxymethylcellulose (CMC)
[9] = dose: 200.0 mg/kg/injection, schedule: Q04DX003 (ip), vehicle: saline with Tween-80
[10] = dose: 200.0 mg/kg/injection, schedule: Q01DX001 (ip), vehicle: saline
[11] = dose: 100.0 mg/kg/injection, schedule: Q04DX003 (ip), vehicle: Klucel (hydroxypropylcellulose) (HPC)
[12] = dose: 200.0 mg/kg/injection, schedule: Q04DX003 (ip), vehicle: Klucel (hydroxypropylcellulose) (HPC)

## CCOC1=CCCCC1
dose: 750.0 mg/kg/injection, schedule: Q01DX Z (ip), vehicle: methylcellulose (MC)
  survivor count: 0 of 6

## NC(N)=N/N=C/c1ccc(O)c(C(=O)O)c1
dose: 125.0 mg/kg/injection, schedule: Q01DX Z (oral), vehicle: methylcellulose (MC)
  survivor count: 2 of 6
dose: 240.0 mg/kg/injection, schedule: Q01DX Z (oral), vehicle: methylcellulose (MC)
  survivor count: 5 of 6
dose: 250.0 mg/kg/injection, schedule: Q01DX Z (ip), vehicle: methylcellulose (MC)
  survivor count: 5 of 6
dose: 375.0 mg/kg/injection, schedule: Q01DX Z (ip), vehicle: methylcellulose (MC)
  survivor count: 1 of 6
dose: 500.0 mg/kg/injection, schedule: Q01DX Z (ip), vehicle: methylcellulose (MC)
  survivor count: 0 of 6
dose: 500.0 mg/kg/injection, schedule: Q01DX Z (oral), vehicle: methylcellulose (MC)
  survivor count: 0 of 6
dose: 1000.0 mg/kg/injection, schedule: Q01DX Z (oral), vehicle: methylcellulose (MC)
  survivor count: 0 of 6

## Nc1ccc(-c2ccc3ccccc3n2)cc1
[1]
  survivor count: 6 of 6
[2]
  survivor count: 1 of 6
[3]
  survivor count: 0 of 6
[4]
  survivor count: 0 of 6
[5]
  survivor count: 0 of 6

## COc1ccc(Nc2cccc(Cl)c2)c(C(=O)O)c1
dose: 300.0 mg/kg/injection, schedule: Q01DX001 (ip), vehicle: saline
  survivor count: 3 of 6

## O=S(=O)(OCC(F)(F)F)c1ccccc1
[4]
  survivor count: 0 of 6

## Cc1c(Cl)cccc1NC(=O)Nc1cccc(C(F)(F)F)c1
dose: 200.0 mg/kg/injection, schedule: Q01DX001 (ip), vehicle: saline with Tween-80
  survivor count: 6 of 6

## Nc1cc(Nc2ccc(CCO)cc2)nc(N)n1
dose: 100.0 mg/kg/injection, schedule: Q01DX Z (ip), vehicle: methylcellulose (MC)
  survivor count: 3 of 6

## CCc1nc(Cl)c(Cl)[nH]1
[6]
  survivor count: 0 of 6

## Cc1ccc([N+](=O)[O-])c(O)c1[N+](=O)[O-]
[4]
  survivor count: 2 of 6

## CCCCC/C=N\NC(N)=S
[7]
  survivor count: 2 of 4
[8]
  survivor count: 1 of 4

## CNC(C)(C)C(SSSC(c1ccc(Cl)cc1)C(C)(C)NC)c1ccc(Cl)cc1 (centres undefined)
dose: 75.0 mg/kg/injection, schedule: Q01DX009 (ip), vehicle: saline with Tween-80
  survivor count: 3 of 6
dose: 100.0 mg/kg/injection, schedule: Q04DX003 (ip), vehicle: saline with Tween-80
  survivor count: 3 of 6
[9]
  survivor count: 0 of 6
dose: 400.0 mg/kg/injection, schedule: Q04DX003 (ip), vehicle: saline with Tween-80
  survivor count: 0 of 6

## C[N+](C)(C)CCC[N+](C)(C)CCN1C(=O)c2cccc3cccc(c23)C1=O
dose: 100.0 mg/kg/injection, schedule: Q01DX001 (ip), vehicle: saline
  survivor count: 0 of 6
[10]
  survivor count: 1 of 6

## N#CCC(=O)NCCc1ccccn1
dose: 200.0 mg/kg/injection, schedule: Q04DX002 (ip), vehicle: saline with Tween-80
  survivor count: 0 of 3
dose: 400.0 mg/kg/injection, schedule: Q04DX002 (ip), vehicle: saline with Tween-80
  survivor count: 0 of 3

## O=C(CCl)COP(=O)(O)O
dose: 100.0 mg/kg/injection, schedule: Q01DX009 (ip), vehicle: other
  survivor count: 0 of 6
dose: 200.0 mg/kg/injection, schedule: Q01DX001 (ip), vehicle: other
  survivor count: 1 of 6
dose: 200.0 mg/kg/injection, schedule: Q04DX003 (ip), vehicle: other
  survivor count: 2 of 6

## CC(C)(SCCc1ccc([N+](=O)[O-])cc1)C(N)C(=O)O (centres undefined)
[11]
  survivor count: 1 of 6
[12]
  survivor count: 0 of 6
[5]
  survivor count: 0 of 6

## COCC/C(COC)=N\N=C(/CCOC)COC
[4]
  survivor count: 2 of 6

## OC(CN1CCCCC1)c1nc2ccccc2c2ccccc12 (centres undefined)
[10]
  survivor count: 1 of 3

## CCOC(=O)c1cc(Br)c(O)c(Br)c1
[3]
  survivor count: 0 of 3

## Cc1cc(N(CCOS(C)(=O)=O)CCOS(C)(=O)=O)ccc1C=Nc1ccc(-c2nc(Cc3ccccc3)sc2C)cc1
dose: 25.0 mg/kg/injection, schedule: Q01DX009 (ip), vehicle: Klucel (hydroxypropylcellulose) (HPC)
  T/C: 131 % of control
[1]
  T/C: 141 % of control
[2]
  T/C: 136 % of control
[11]
  T/C: 125 and 143 % of control
dose: 150.0 mg/kg/injection, schedule: Q04DX003 (ip), vehicle: Klucel (hydroxypropylcellulose) (HPC)
  survivor count: 6 of 6
[3]
  survivor count: 6 of 6
[12]
  survivor count: 6 of 6
[4]
  survivor count: 6 of 6
[5]
  survivor count: 4 of 6

## NC(=O)c1cn(C2OC(CO)C(O)C2O)c2ncn3ccnc3c12 (centres undefined)
dose: 25.0 mg/kg/injection, schedule: Q01DX005 (ip), vehicle: saline
  survivor count: 3 of 4
dose: 50.0 mg/kg/injection, schedule: Q01DX005 (ip), vehicle: saline
  survivor count: 3 of 4
dose: 100.0 mg/kg/injection, schedule: Q01DX005 (ip), vehicle: saline
  survivor count: 0 of 6
dose: 200.0 mg/kg/injection, schedule: Q01DX005 (ip), vehicle: saline
  survivor count: 0 of 6

## COC1OC2COC(c3ccccc3)OC2C(O)C1N (centres undefined)
[9]
  survivor count: 0 of 6

## C[C@]12CC[C@H](O)C[C@@]1(O)CC[C@@H]1[C@@H]2CC[C@]2(C)[C@@H](c3ccc(=O)oc3)CC[C@]12O
dose: 100.0 mg/kg/injection, schedule: Q01DX009 (ip), vehicle: carboxymethylcellulose (CMC)
  survivor count: 0 of 6
[7]
  survivor count: 0 of 6
dose: 200.0 mg/kg/injection, schedule: Q01DX009 (ip), vehicle: carboxymethylcellulose (CMC)
  survivor count: 0 of 6
[8]
  survivor count: 0 of 6

## O=S(=O)(C=C(N1CCCCC1)N1CCCCC1)Cc1ccccc1
dose: 50.0 mg/kg/injection, schedule: Q04DX003 (ip), vehicle: saline
  survivor count: 3 of 6
dose: 55.0 mg/kg/injection, schedule: Q01DX009 (ip), vehicle: acetone
  survivor count: 3 of 6
dose: 80.0 mg/kg/injection, schedule: Q01DX009 (ip), vehicle: acetone
  survivor count: 0 of 6
dose: 100.0 mg/kg/injection, schedule: Q01DX001 (ip), vehicle: acetone
  survivor count: 0 of 6
dose: 200.0 mg/kg/injection, schedule: Q01DX001 (ip), vehicle: acetone
  survivor count: 0 of 6
dose: 400.0 mg/kg/injection, schedule: Q01DX001 (ip), vehicle: acetone
  survivor count: 0 of 6

## NC(N)=N/N=C/N1CCCCC1
dose: 960.0 mg/kg/injection, schedule: Q01DX Z (ip), vehicle: methylcellulose (MC)
  survivor count: 1 of 6

## Cc1c2oc3c(C)ccc(C(=O)NCCC(C)C)c3nc-2c(C(=O)NCCC(C)C)c(N)c1=O
dose: 20.0 mg/kg/injection, schedule: Q01DX001 (ip), vehicle: carboxymethylcellulose (CMC)
  survivor count: 6 of 6
dose: 40.0 mg/kg/injection, schedule: Q01DX001 (ip), vehicle: carboxymethylcellulose (CMC)
  survivor count: 6 of 6
dose: 75.0 mg/kg/injection, schedule: Q01DX001 (ip), vehicle: other
  survivor count: 6 of 6
dose: 150.0 mg/kg/injection, schedule: Q01DX001 (ip), vehicle: other
  survivor count: 4 of 6
dose: 300.0 mg/kg/injection, schedule: Q01DX001 (ip), vehicle: other
  survivor count: 2 of 6

## COc1ccc(C)cc1NC(=O)Nc1cc(Cl)ccc1C
[6]
  survivor count: 2 of 6
